In PubChem BioAssay AID504467 (National Center for Advancing Translational Sciences (NCATS), 2011):
Among all 330,000 compounds or so, about 7,700 (2.3%) were called active. Inconclusive results, whose numbers are uncertain, are shown with a selection of clear calls. The call rests on the fitted dose curve; in most records, active means well fitted inhibition curve with a large enough effect; inconclusive means small, poorly fitted or top-dose-only effect, or effect the other way; inactive means flat fitted curve, though single readings scatter. Potencies beside an inconclusive call are fits to weak or partial responses and may not hold up.

Experiment: qHTS screen for small molecules that inhibit ELG1-dependent DNA repair in human embryonic kidney (HEK293T) cells expressing luciferase-tagged ELG1; further: nearly all actives have a fitted effect of over 55% in size
Details: HEK293T ELG1-luciferase reporter, luminescence, 16 h, DNA damage induced by 5-fluorouridine; series mostly up to 46.1 µM
Summary of the method: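 DMSO vehicle served as the neutral condition. Each well held 2,000 cells given 5-fluorouridine plus compound; after 16 hr at 37 °C/5% CO2, ONE-Glo was added and luciferase measured 30 min later.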
Potency means the concentration at half of the fitted maximal effect.

**Q.** Which Potency does the source give for `COc1ccc(N=Nc2c(C)[nH][nH]c2=O)cc1` here?
**A.** inconclusive: 0.73 µM [inhibitor, partial curve, poor fit]

**Q.** With `CCOC(=O)c1c(-c2ccc(F)cc2)csc1/N=C/N(C)C` as the molecule, how does the Potency read?
**A.** inactive

**Q.** For `Cc1ccccc1/C(N)=N/OC(=O)c1cccs1`, which Potency is on record?
**A.** inconclusive: 18.4 µM [activator, single point]

**Q.** Which Potency does the source give for `O=C1C2CC=CCC2C(=O)N1c1ccc(NCCc2ccccc2F)c([N+](=O)[O-])c1` (configuration not stated) here?
**A.** inconclusive: 20.6 µM [activator, partial curve]

**Q.** Which Potency does the source give for `COc1cccc(C2c3c(-c4ccccc4O)n[nH]c3C(=O)N2Cc2ccco2)c1` (configuration not stated) here?
**A.** inactive

**Q.** With `O=C1CCCCC/C1=N/Nc1ccc(OCc2ccccc2)cc1` as the molecule, how does the Potency read?
**A.** inconclusive: 29.1 µM [activator, single point]

**Q.** With `N#Cc1cc([N+](=O)[O-])ccc1NC(=O)COC(=O)CN1C(=O)C2CCCCC2C1=O` (configuration not stated) as the molecule, how does the Potency read?
**A.** inconclusive: 20.6 µM [inhibitor, partial curve, poor fit]

**Q.** For `CCOc1cc(NC(=O)c2ccccn2)c(OCC)cc1NC(=O)c1ccc(OC)cc1`, which Potency is on record?
**A.** inconclusive: 2.59 µM [inhibitor, full curve]

**Q.** With `O=C(N/N=C/c1c(O)n(-c2ccccc2Cl)c(=O)c2ccccc12)C1COc2ccccc2O1` (configuration not stated) as the molecule, how does the Potency read?
**A.** inconclusive: 29.1 µM [inhibitor, single point]

**Q.** Which Potency does the source give for `Cc1cccc(NC(=O)c2ccc(Cl)c(S(=O)(=O)N3CCCCC3)c2)n1` here?
**A.** inconclusive: 23.1 µM [inhibitor, single point]

**Q.** Which Potency does the source give for `CN1CCN(C(=O)c2ccccc2[N+](=O)[O-])CC1` here?
**A.** inconclusive: 0.112 µM [activator, full curve, poor fit]

**Q.** Which Potency does the source give for `CCC(C)NC(=S)NNC(=O)c1ccncc1` (configuration not stated) here?
**A.** inactive

**Q.** For `Cc1ccc(N=Nc2c(N)[nH]n3c(=O)cc(C)nc23)cc1`, which Potency is on record?
**A.** inactive

**Q.** With `Cc1nn(CC(=O)N2CCN(S(=O)(=O)c3ccccc3)CC2)c(C)c1[N+](=O)[O-]` as the molecule, how does the Potency read?
**A.** inactive

**Q.** Which Potency does the source give for `O=C(c1cc2c(s1)CCCC2)N1CCN(Cc2ccc3c(c2)OCO3)CC1` here?
**A.** inconclusive: 23.1 µM [inhibitor, partial curve]

**Q.** Which Potency does the source give for `CCOC(=O)c1c(C)[nH]c(C)c1C(=O)COC(=O)C1CC(=O)N(CCc2ccccc2)C1` (configuration not stated) here?
**A.** inactive

**Q.** With `O=C(CC1CCCC1)Nc1nc2ccccc2[nH]1` as the molecule, how does the Potency read?
**A.** inconclusive: 2.59 µM [activator, partial curve]

**Q.** Which Potency does the source give for `COc1cccc(NC(=O)CSc2nnc(-c3cccc(OC(C)C)c3)n2N)c1` here?
**A.** inconclusive: 14.6 µM [activator, partial curve, poor fit]

**Q.** For `CCn1c(=O)cc(OCC(=O)N(C)C2CCCCC2)c2ccccc21`, which Potency is on record?
**A.** inconclusive: 18.4 µM [activator, partial curve, poor fit]

**Q.** Which Potency does the source give for `O=C1c2nc3cc(-c4ccco4)[nH]n3c(=O)c2CN1C1CCCCC1` here?
**A.** inconclusive: 25.9 µM [activator, single point]

**Q.** With `CC(C)(C)c1cc2cccnc2n1Cc1cccc(Cl)c1` as the molecule, how does the Potency read?
**A.** inactive

**Q.** Which Potency does the source give for `CC(=O)c1cccc(NC(=O)C(C)OC(=O)C2=NNC(=O)CC2)c1` (configuration not stated) here?
**A.** inactive

**Q.** Which Potency does the source give for `COc1ccccc1CNC(=O)CCCNC(=O)c1ccc(Cl)cc1` here?
**A.** inactive

**Q.** Which Potency does the source give for `COc1ccc(C(=O)NCC(c2ccco2)N2CCc3ccccc32)c(OC)c1` (configuration not stated) here?
**A.** inconclusive: 29.1 µM [inhibitor, single point]

**Q.** Which Potency does the source give for `O=C(CCc1nc2ccccc2s1)Nc1cccnc1` here?
**A.** inactive

**Q.** With `O=C1CN(C(=S)Nc2ccccc2Cl)CCN1` as the molecule, how does the Potency read?
**A.** inactive

**Q.** With `O=C(Nc1ccc2oc(=O)ccc2c1)c1ccc(-c2ccccc2[N+](=O)[O-])o1` as the molecule, how does the Potency read?
**A.** inconclusive: 25.9 µM [activator, single point]

**Q.** For `O=C1OC(c2cccs2)=N/C1=C/c1ccc(-c2cccc(C(=O)O)c2)o1`, which Potency is on record?
**A.** inconclusive: 18.3 µM [activator, single point]

**Q.** For `CC(C)OCCCNC(=O)c1sc(=S)n(C)c1N`, which Potency is on record?
**A.** inconclusive: 14.6 µM [activator, partial curve, poor fit]

**Q.** With `COc1ccc(N2CCN(C(=O)c3ccc(CNS(=O)(=O)c4ccc(C)cc4)cc3)CC2)cc1` as the molecule, how does the Potency read?
**A.** inactive

**Q.** With `Oc1[nH]c2ccccc2c1C=Nc1ccc2c(c1)OCCO2` as the molecule, how does the Potency read?
**A.** inconclusive: 0.82 µM [activator, partial curve]

**Q.** Which Potency does the source give for `COc1ccc(-c2c(C(=O)O)c(-c3ccccc3)cn2C)cc1` here?
**A.** inconclusive: 31.6 µM [activator, single point]

**Q.** For `Cc1ccc2nc3c(c(N)c2c1)CCN3c1ccccc1`, which Potency is on record?
**A.** inactive

**Q.** With `O=C(NC1CCCCC1)C(c1ccco1)N(C(=O)c1csnn1)c1ccccc1` (configuration not stated) as the molecule, how does the Potency read?
**A.** inactive

**Q.** With `CCc1nnc(NC(=O)c2ccc3nc(CC)c(CC)nc3c2)s1` as the molecule, how does the Potency read?
**A.** inactive

**Q.** With `COC(=O)c1ccc(OCC(O)CNCC(c2ccc(OC)cc2)N(C)C)c(OC)c1` (configuration not stated) as the molecule, how does the Potency read?
**A.** inconclusive: 20.6 µM [activator, partial curve]

**Q.** With `CCc1ccc(/C=N/Nc2ncnc3nc[nH]c23)cc1` as the molecule, how does the Potency read?
**A.** inconclusive: 9.2 µM [activator, partial curve]

**Q.** With `COc1cc(CN2CC(=O)N(c3ccc(C)c(C)c3)C2=S)cc(OC)c1OC` as the molecule, how does the Potency read?
**A.** inconclusive: 23.1 µM [inhibitor, single point]

**Q.** Which Potency does the source give for `Cc1ccc(/C(N)=N/OC(=O)c2ccc(F)cc2)cc1` here?
**A.** inconclusive: 18.4 µM [activator, partial curve]

**Q.** With `O=C1/C(=C/c2ccncc2)CCC/C1=C\c1ccncc1` as the molecule, how does the Potency read?
**A.** inconclusive: 4.11 µM [activator, single point]

**Q.** For `COc1ccc(CN(C)C(=O)c2ccc(Cl)c(S(=O)(=O)NCc3cccnc3)c2)cc1F`, which Potency is on record?
**A.** inconclusive: 20.6 µM [inhibitor, single point]

**Q.** Which Potency does the source give for `Cc1ccc(C(=O)NC(=S)Nc2ccccc2C)cc1` here?
**A.** inconclusive: 16.4 µM [activator, partial curve]

**Q.** For `CS/C(N)=N/C(=S)Nc1cccc(Cl)c1`, which Potency is on record?
**A.** inconclusive: 20.6 µM [activator, partial curve]

**Q.** With `COc1cc(C(=O)N2CCN(C(=O)COc3ccc4ccccc4c3)CC2)cc(OC)c1OC` as the molecule, how does the Potency read?
**A.** inactive

**Q.** Which Potency does the source give for `Cc1ccn2c(C(=O)c3ccc(Cl)cc3)cnc2c1` here?
**A.** inconclusive: 1.64 µM [activator, full curve]

**Q.** For `CCCCN1CC(=O)N2[C@H]3c4ccc(OC)cc4OC[C@@H]3[C@H](C(=O)OCC)[C@]2(C)C1=O`, which Potency is on record?
**A.** inactive

**Q.** For `CCOc1cc(C(=O)N(C)CC(=O)Nc2cccc3ccccc23)ccc1OC`, which Potency is on record?
**A.** inconclusive: 6.51 µM [activator, single point]

**Q.** Which Potency does the source give for `CCCN1C(=O)/C(=C\c2ccncc2)SC1=Nc1ccccc1` here?
**A.** inactive

**Q.** With `C=CCn1c(NCCc2ccccc2)nc2c1c(=O)n(C)c(=O)n2C` as the molecule, how does the Potency read?
**A.** inconclusive: 16.4 µM [inhibitor, partial curve]

**Q.** For `CCOc1ccc2oc(C(=O)N(CC)CC(=O)Nc3c(F)cccc3F)c(C)c2c1`, which Potency is on record?
**A.** inconclusive: 8.2 µM [inhibitor, single point]

**Q.** Which Potency does the source give for `O=C(O)[C@@H]1CC(O)CN1C(=O)CCc1c[nH]c2ccccc12` (some centres not stated) here?
**A.** inconclusive: 14.6 µM [activator, partial curve, poor fit]

**Q.** With `CCOC(=O)N1CCN(C(=O)CN2C(=O)NC(c3ccccc3)(c3ccccc3)C2=O)CC1` as the molecule, how does the Potency read?
**A.** inactive

**Q.** Which Potency does the source give for `c1ccc2c(c1)CCN(c1nc3ccccc3n3cnnc13)C2` here?
**A.** inconclusive: 29.1 µM [inhibitor, single point]

**Q.** Which Potency does the source give for `Cc1ccc(S(=O)(=O)N(C)CCCC(=O)Nc2ccc(F)cc2)cc1` here?
**A.** inconclusive: 29.1 µM [inhibitor, single point]

**Q.** For `O=S(=O)(Nc1ccc(S(=O)(=O)N2CCOCC2)cc1)c1ccc(Br)cc1`, which Potency is on record?
**A.** inactive

**Q.** For `COc1ccc(-c2noc(C3CCCN(S(=O)(=O)c4cccc(Cl)c4)C3)n2)cc1OC` (configuration not stated), which Potency is on record?
**A.** inconclusive: 20.6 µM [inhibitor, partial curve, poor fit]

**Q.** Which Potency does the source give for `S=C(NCc1ccco1)Nc1ccc2c(c1)OCCO2` here?
**A.** inconclusive: 23.1 µM [activator, partial curve]

**Q.** For `CC(=O)Nc1ccc(S(=O)(=O)N2CCN(CCC#N)CC2)cc1`, which Potency is on record?
**A.** inactive

**Q.** For `COC(=O)CSc1nc(NC(C)(C)C)nc(N(C)C)n1`, which Potency is on record?
**A.** inconclusive: 20.6 µM [activator, single point]

**Q.** With `O=C(Nc1cccnc1)c1cc(-c2cc(Cl)ccc2O)n[nH]1` as the molecule, how does the Potency read?
**A.** inconclusive: 8.2 µM [activator, partial curve]

**Q.** With `CCn1c(C)nc2cc(C(=O)N/N=C/c3cccc(OC)c3O)ccc21` as the molecule, how does the Potency read?
**A.** inconclusive: 6.51 µM [inhibitor, single point]

**Q.** Which Potency does the source give for `COc1ccc(C2c3[nH]c4ccccc4c3CCN2CCCn2cccn2)c(C)c1C` (configuration not stated) here?
**A.** inconclusive: 29.1 µM [inhibitor, single point]

**Q.** Which Potency does the source give for `CC(NCC(=O)Nc1cc(S(=O)(=O)N2CCOCC2)ccc1N1CCOCC1)c1ccco1` (configuration not stated) here?
**A.** inactive

**Q.** With `Oc1ccc(Br)cc1-c1cc(-c2ccc(Cl)cc2)n[nH]1` as the molecule, how does the Potency read?
**A.** inconclusive: 32.6 µM [inhibitor, single point]

**Q.** With `CCC(=O)NCCc1nc2cc(NC(=O)Nc3ccccc3)ccc2n1C` as the molecule, how does the Potency read?
**A.** inconclusive: 8.2 µM [activator, partial curve]

**Q.** Which Potency does the source give for `O=C(NCc1cccnc1)Nc1ccccc1` here?
**A.** inactive

**Q.** For `Oc1c(C=C2N=c3ccccc3=N2)sc(=S)n1-c1ccc(F)cc1`, which Potency is on record?
**A.** inactive

**Q.** With `O=C(CS(=O)(=O)c1ccccc1)c1cc2ccccc2oc1=O` as the molecule, how does the Potency read?
**A.** inactive

**Q.** For `Cc1cc(C)nc(NNC2=CC(=[N+]3CCCC3)CCC2)n1`, which Potency is on record?
**A.** inactive

**Q.** Which Potency does the source give for `O=C(NC(=S)NCCCN1CCOCC1)c1ccco1` here?
**A.** inconclusive: 25.9 µM [inhibitor, single point]

**Q.** For `COc1ccc(-n2c(=O)c3ccccc3n(Cc3ccccc3F)c2=O)cc1OC`, which Potency is on record?
**A.** inconclusive: 23.1 µM [inhibitor, partial curve, poor fit]

**Q.** With `CCN1CCN(c2ncnc3sc(C(=O)Nc4ccccc4F)c(C)c23)CC1` as the molecule, how does the Potency read?
**A.** inactive
